# This is one part of the list.
# B1: PX9916F-bfa-443-24-443 (Bacteroides fragilis) (protein)
# chain: DIRPVGSVIPQTAEEYRALLARAYLNVPNDRGLACLRSDEMLVNDNEYDRNSYGDIERWNDVSPFPGTSQFTWSNFYNVLFIANQVIESQKEITEGTPEVVNQLVGEAHLLRAYLHFVLVNLHGQPYTKSGALNSKSIPLKLDTDLEKTLGRNTVEEVYTSILSDIEHARELINKEKWETVFSYRFNVLSVDALQSRVSLYMGAWPKCLESAEAVLAKKSVLVDMNETPLALPNHFESVESITALEQVMGSSVNNAVWVPATFLALYQEGDKRLAAYFAAPDENGNRKSSKGGKREFSCTFRVGELYLNAAEAAANMDKLPHARMRLLELMRKRYTPEAYDKKENAVNVMDKNALISEILNERARELAFEGHRWFDLRRTTRPRMVKVLQGKTYILEQDDPRYTIPIPRDAIAANPGLAN
# Columns and labels:
# Assay in all cases: glycan array binding signal (z-score within array); higher = stronger binding
# Details in all cases: glycan notation: IUPAC condensed, linker removed
# [1] = biological target: Gal(b1-4)GlcNAc(b1-3)Gal(b1-4)GlcNAc(b1-3)Gal(b1-4)GlcNAc(b1-2)Man(a1-3)[Gal(b1-4)GlcNAc(b1-3)Gal(b1-4)GlcNAc(b1-3)Gal(b1-4)GlcNAc(b1-2)Man(a1-6)]Man(b1-4)GlcNAc(b1-4)GlcNAc
# Method in brief: (§1)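 Glycan array data came from 3228 arrays in the Consortium for Functional Glycomics database, and only arrays with an available protein sequence were kept. Glycan names were put into IUPAC-condensed notation, and columns mapping to the same glycan were averaged. The binding signal is a within-array Z-score, averaged across arrays of one protein sequence run at different concentrations or buffers and across linkers. A negative Z-score can be read as non-binding.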
# [2] = biological target: Gal(b1-4)GlcNAc(b1-3)Gal(b1-4)GlcNAc(b1-3)Gal(b1-4)GlcNAc(b1-2)Man(a1-3)[Gal(b1-4)GlcNAc(b1-3)Gal(b1-4)GlcNAc(b1-3)Gal(b1-4)GlcNAc(b1-2)Man(a1-6)]Man(b1-4)GlcNAc(b1-4)[Fuc(a1-6)]GlcNAc
# Method in brief: as §1
# [3] = biological target: Gal(b1-4)GlcNAc(b1-3)Gal(b1-4)GlcNAc(b1-3)Gal(b1-4)GlcNAc(b1-2)[Gal(b1-4)GlcNAc(b1-3)Gal(b1-4)GlcNAc(b1-3)Gal(b1-4)GlcNAc(b1-6)]Man(a1-6)[Gal(b1-4)GlcNAc(b1-3)Gal(b1-4)GlcNAc(b1-3)Gal(b1-4)GlcNAc(b1-2)Man(a1-3)]Man(b1-4)GlcNAc(b1-4)[Fuc(a1-6)]GlcNAc
# Method in brief: as §1
# [4] = biological target: Gal(b1-4)GlcNAc(b1-3)Gal(b1-4)GlcNAc(b1-3)Gal(b1-4)GlcNAc(b1-3)Gal(b1-4)GlcNAc(b1-2)Man(a1-3)[Gal(b1-4)GlcNAc(b1-3)Gal(b1-4)GlcNAc(b1-3)Gal(b1-4)GlcNAc(b1-3)Gal(b1-4)GlcNAc(b1-2)Man(a1-6)]Man(b1-4)GlcNAc(b1-4)GlcNAc
# Method in brief: as §1
# [5] = biological target: Gal(b1-4)GlcNAc(b1-3)Gal(b1-4)GlcNAc(b1-3)Gal(b1-4)GlcNAc(b1-3)Gal(b1-4)GlcNAc(b1-2)Man(a1-3)[Gal(b1-4)GlcNAc(b1-3)Gal(b1-4)GlcNAc(b1-3)Gal(b1-4)GlcNAc(b1-3)Gal(b1-4)GlcNAc(b1-2)Man(a1-6)]Man(b1-4)GlcNAc(b1-4)[Fuc(a1-6)]GlcNAc
# Method in brief: as §1
# [6] = biological target: Gal(b1-4)GlcNAc(b1-3)Gal(b1-4)GlcNAc(b1-3)Gal(b1-4)GlcNAc(b1-3)Gal(b1-4)GlcNAc(b1-2)[Gal(b1-4)GlcNAc(b1-3)Gal(b1-4)GlcNAc(b1-3)Gal(b1-4)GlcNAc(b1-3)Gal(b1-4)GlcNAc(b1-6)]Man(a1-6)[Gal(b1-4)GlcNAc(b1-3)Gal(b1-4)GlcNAc(b1-3)Gal(b1-4)GlcNAc(b1-3)Gal(b1-4)GlcNAc(b1-2)Man(a1-3)]Man(b1-4)GlcNAc(b1-4)[Fuc(a1-6)]GlcNAc
# Method in brief: as §1
# [7] = biological target: Gal(b1-4)GlcNAc(b1-3)Gal(b1-4)GlcNAc(b1-3)Gal(b1-4)GlcNAc(b1-3)Gal(b1-4)GlcNAc(b1-3)Gal(b1-4)GlcNAc(b1-2)Man(a1-3)[Gal(b1-4)GlcNAc(b1-3)Gal(b1-4)GlcNAc(b1-3)Gal(b1-4)GlcNAc(b1-3)Gal(b1-4)GlcNAc(b1-3)Gal(b1-4)GlcNAc(b1-2)Man(a1-6)]Man(b1-4)GlcNAc(b1-4)GlcNAc
# Method in brief: as §1
# [8] = biological target: Gal(b1-4)GlcNAc(b1-3)Gal(b1-4)GlcNAc(b1-3)Gal(b1-4)GlcNAc(b1-3)Gal(b1-4)GlcNAc(b1-3)Gal(b1-4)GlcNAc(b1-2)Man(a1-3)[Gal(b1-4)GlcNAc(b1-3)Gal(b1-4)GlcNAc(b1-3)Gal(b1-4)GlcNAc(b1-3)Gal(b1-4)GlcNAc(b1-3)Gal(b1-4)GlcNAc(b1-2)Man(a1-6)]Man(b1-4)GlcNAc(b1-4)[Fuc(a1-6)]GlcNAc
# Method in brief: as §1
# [9] = biological target: Gal(b1-4)GlcNAc(b1-3)Gal(b1-4)GlcNAc(b1-3)Gal(b1-4)GlcNAc(b1-3)Gal(b1-4)GlcNAc(b1-3)Gal(b1-4)GlcNAc(b1-2)[Gal(b1-4)GlcNAc(b1-3)Gal(b1-4)GlcNAc(b1-3)Gal(b1-4)GlcNAc(b1-3)Gal(b1-4)GlcNAc(b1-3)Gal(b1-4)GlcNAc(b1-6)]Man(a1-6)[Gal(b1-4)GlcNAc(b1-3)Gal(b1-4)GlcNAc(b1-3)Gal(b1-4)GlcNAc(b1-3)Gal(b1-4)GlcNAc(b1-3)Gal(b1-4)GlcNAc(b1-2)Man(a1-3)]Man(b1-4)GlcNAc(b1-4)[Fuc(a1-6)]GlcNAc
# Method in brief: as §1
# [10] = biological target: Gal(b1-4)GlcNAc(b1-3)Gal(b1-4)GlcNAc(b1-3)Gal(b1-4)GlcNAc(b1-3)Gal(b1-4)GlcNAc(b1-3)Gal(b1-4)GlcNAc(b1-3)Gal(b1-4)GlcNAc(b1-2)Man(a1-3)[Gal(b1-4)GlcNAc(b1-3)Gal(b1-4)GlcNAc(b1-3)Gal(b1-4)GlcNAc(b1-3)Gal(b1-4)GlcNAc(b1-3)Gal(b1-4)GlcNAc(b1-3)Gal(b1-4)GlcNAc(b1-2)Man(a1-6)]Man(b1-4)GlcNAc(b1-4)GlcNAc
# Method in brief: as §1
# [11] = biological target: Gal(b1-4)GlcNAc(b1-3)Gal(b1-4)GlcNAc(b1-3)GalNAc
# Method in brief: as §1
# [12] = biological target: Gal(b1-4)GlcNAc(b1-3)Gal(b1-4)GlcNAc(b1-3)[Gal(b1-4)GlcNAc(b1-3)Gal(b1-4)GlcNAc(b1-6)]GalNAc
# Method in brief: as §1
# [13] = biological target: Gal(b1-4)GlcNAc(b1-3)Gal(b1-4)GlcNAc(b1-6)[Gal(b1-3)]GalNAc
# Method in brief: as §1
# [14] = biological target: Gal(b1-4)GlcNAc(b1-3)Gal(b1-4)[Fuc(a1-3)]GlcNAc(b1-3)Gal(b1-4)[Fuc(a1-3)]GlcNAc
# Method in brief: as §1
# [15] = biological target: Gal(b1-4)GlcNAc(b1-3)GalNAc
# Method in brief: as §1
# [16] = biological target: Gal(b1-4)GlcNAc(b1-3)[Fuc(a1-3)GlcNAc(b1-6)]Gal(b1-4)Glc
# Method in brief: as §1
# [17] = biological target: Gal(b1-4)GlcNAc(b1-3)[Gal(b1-4)GlcNAc(b1-6)]Gal(b1-4)GlcNAc
# Method in brief: as §1
# [18] = biological target: Gal(b1-4)GlcNAc(b1-3)[GlcNAc(b1-6)]Gal(b1-4)GlcNAc
# Method in brief: as §1
# [19] = biological target: Gal(b1-4)GlcNAc(b1-6)Gal(b1-4)GlcNAc
# Method in brief: as §1
binder,measurement,setting,value
B1,glycan array binding signal (z-score),[1],0.837
same,glycan array binding signal (z-score),[2],2.81
same,glycan array binding signal (z-score),[3],1.15
same,glycan array binding signal (z-score),[4],-0.669
same,glycan array binding signal (z-score),[5],-0.06
same,glycan array binding signal (z-score),[6],0.287
same,glycan array binding signal (z-score),[7],0.013
same,glycan array binding signal (z-score),[8],0.299
same,glycan array binding signal (z-score),[9],0.638
same,glycan array binding signal (z-score),[10],-0.582
same,glycan array binding signal (z-score),[11],-0.677
same,glycan array binding signal (z-score),[12],1.47
same,glycan array binding signal (z-score),[13],0.367
same,glycan array binding signal (z-score),[14],-0.167
same,glycan array binding signal (z-score),[15],-0.724
same,glycan array binding signal (z-score),[16],-0.52
same,glycan array binding signal (z-score),[17],-0.736
same,glycan array binding signal (z-score),[18],0.609
same,glycan array binding signal (z-score),[19],-0.441

# A portion from further up, for reference:
binder,measurement,setting,value
B1,glycan array binding signal (z-score),[5],-0.06
same,glycan array binding signal (z-score),[6],0.287
